Results: article PMC2263068
Substitutions are numbered along the chain they refer to. In names and notes the source's numbering stands. No constants are given. Whether binding was seen depends on the method and setting. For part of these data: In cells and extracts the contact can be indirect. Some entries that bind do so weakly or less than the wild type. For part of these data: Where a sequence is shown, tags or fusion partners need not be part of it.

By UniProt entry, the sequences of proteins in these tests, tags left out. Residues count along the entry.
UniProt Q09472, residues 566-645: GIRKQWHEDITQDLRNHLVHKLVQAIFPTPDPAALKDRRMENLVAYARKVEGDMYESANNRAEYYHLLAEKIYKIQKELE
UniProt P35222: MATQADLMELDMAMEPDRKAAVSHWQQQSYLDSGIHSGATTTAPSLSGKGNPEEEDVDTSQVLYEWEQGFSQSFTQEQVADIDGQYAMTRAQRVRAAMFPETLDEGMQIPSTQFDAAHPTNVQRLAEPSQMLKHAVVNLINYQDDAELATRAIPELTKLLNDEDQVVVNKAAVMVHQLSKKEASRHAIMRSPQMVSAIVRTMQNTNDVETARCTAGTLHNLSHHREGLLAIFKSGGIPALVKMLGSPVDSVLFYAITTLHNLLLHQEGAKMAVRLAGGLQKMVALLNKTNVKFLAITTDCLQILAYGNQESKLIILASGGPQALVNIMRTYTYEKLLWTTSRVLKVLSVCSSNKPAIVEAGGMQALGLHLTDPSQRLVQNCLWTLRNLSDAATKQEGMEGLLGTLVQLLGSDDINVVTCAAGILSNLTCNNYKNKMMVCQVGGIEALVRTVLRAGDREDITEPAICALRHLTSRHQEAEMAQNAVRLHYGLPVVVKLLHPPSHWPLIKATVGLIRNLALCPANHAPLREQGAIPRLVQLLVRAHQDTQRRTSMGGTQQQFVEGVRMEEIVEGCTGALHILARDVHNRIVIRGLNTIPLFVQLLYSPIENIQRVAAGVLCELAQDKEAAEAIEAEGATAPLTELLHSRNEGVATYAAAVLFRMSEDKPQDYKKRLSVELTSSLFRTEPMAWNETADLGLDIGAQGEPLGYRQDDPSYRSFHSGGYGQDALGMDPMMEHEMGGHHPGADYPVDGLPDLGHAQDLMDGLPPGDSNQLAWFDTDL
UniProt Q61026: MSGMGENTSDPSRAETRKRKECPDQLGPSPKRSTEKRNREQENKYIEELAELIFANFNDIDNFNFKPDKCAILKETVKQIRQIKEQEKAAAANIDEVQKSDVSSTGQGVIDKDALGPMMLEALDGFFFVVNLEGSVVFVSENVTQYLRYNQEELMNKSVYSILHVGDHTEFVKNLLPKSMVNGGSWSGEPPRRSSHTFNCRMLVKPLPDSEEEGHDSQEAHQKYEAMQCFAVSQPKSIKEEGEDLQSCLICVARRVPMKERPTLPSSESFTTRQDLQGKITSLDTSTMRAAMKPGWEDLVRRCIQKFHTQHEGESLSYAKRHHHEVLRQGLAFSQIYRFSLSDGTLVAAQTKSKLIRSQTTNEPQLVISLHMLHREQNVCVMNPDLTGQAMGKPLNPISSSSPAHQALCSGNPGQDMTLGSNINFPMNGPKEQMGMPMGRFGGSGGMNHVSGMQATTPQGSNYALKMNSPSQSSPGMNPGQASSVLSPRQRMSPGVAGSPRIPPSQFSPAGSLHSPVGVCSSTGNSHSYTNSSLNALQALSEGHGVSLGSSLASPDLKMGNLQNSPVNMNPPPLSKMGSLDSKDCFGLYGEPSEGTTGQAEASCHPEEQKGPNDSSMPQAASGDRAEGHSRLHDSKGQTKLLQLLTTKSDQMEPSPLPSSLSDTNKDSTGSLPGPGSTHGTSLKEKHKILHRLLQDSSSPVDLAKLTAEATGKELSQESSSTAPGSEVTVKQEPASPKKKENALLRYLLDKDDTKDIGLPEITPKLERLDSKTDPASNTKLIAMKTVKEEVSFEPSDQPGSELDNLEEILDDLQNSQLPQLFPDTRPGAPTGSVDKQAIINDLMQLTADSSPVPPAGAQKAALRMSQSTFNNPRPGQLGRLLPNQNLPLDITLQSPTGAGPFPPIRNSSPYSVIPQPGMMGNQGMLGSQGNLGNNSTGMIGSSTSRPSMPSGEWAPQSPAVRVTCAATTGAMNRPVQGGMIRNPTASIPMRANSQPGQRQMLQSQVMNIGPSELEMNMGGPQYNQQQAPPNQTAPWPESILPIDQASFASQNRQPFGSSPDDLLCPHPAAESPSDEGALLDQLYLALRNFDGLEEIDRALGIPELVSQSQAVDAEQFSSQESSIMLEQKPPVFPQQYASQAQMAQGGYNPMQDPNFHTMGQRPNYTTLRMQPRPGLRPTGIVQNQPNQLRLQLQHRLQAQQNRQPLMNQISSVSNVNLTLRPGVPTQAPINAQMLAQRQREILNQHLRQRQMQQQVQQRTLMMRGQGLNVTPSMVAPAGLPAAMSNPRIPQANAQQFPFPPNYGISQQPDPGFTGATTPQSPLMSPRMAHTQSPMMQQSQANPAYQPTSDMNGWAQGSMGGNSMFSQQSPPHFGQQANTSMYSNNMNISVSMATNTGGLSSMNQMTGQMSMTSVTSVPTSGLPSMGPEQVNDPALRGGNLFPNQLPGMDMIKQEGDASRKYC
UniProt O75925: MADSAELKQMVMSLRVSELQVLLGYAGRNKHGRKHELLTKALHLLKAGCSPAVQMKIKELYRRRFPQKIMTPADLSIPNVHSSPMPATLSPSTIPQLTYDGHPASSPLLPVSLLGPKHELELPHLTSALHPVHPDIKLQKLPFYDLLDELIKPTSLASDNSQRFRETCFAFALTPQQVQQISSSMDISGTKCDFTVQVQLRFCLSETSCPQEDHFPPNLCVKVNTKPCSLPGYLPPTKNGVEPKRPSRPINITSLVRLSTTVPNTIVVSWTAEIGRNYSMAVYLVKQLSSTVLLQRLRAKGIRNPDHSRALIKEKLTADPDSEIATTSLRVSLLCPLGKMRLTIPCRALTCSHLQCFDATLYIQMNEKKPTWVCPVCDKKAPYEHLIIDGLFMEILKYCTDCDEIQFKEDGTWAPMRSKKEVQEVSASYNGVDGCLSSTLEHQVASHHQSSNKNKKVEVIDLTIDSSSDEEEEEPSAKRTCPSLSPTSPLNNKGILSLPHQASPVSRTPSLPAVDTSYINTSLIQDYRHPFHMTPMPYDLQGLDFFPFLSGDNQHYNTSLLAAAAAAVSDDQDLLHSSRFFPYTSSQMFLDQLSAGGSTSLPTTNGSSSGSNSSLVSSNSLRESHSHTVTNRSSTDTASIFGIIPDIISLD

What was measured:
[1] = molecular target: T1, GST-CoCoA(470–691) fusion protein (UniProt Q8CGU1); experiment: pull-down; GST fusion protein bound to glutathione-Sepharose, incubated with in vitro-translated protein; bound proteins eluted and analysed by immunoblot with anti-HA antibody or autoradiography; only the target purified
T1 sequence: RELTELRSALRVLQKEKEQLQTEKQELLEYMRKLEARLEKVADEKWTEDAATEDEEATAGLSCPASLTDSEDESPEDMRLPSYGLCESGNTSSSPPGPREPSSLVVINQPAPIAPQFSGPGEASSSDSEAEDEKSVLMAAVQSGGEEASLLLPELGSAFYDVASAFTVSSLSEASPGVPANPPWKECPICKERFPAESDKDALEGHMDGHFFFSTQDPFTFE

GST-p300 KIX fragment = GST-p300 KIX fragment (UniProt Q09472); experiment: as above
GST-β-catenin = GST-β-catenin (UniProt P35222); experiment: as above
[2] = molecular target: glucocorticoid receptor interacting protein 1 (GRIP1) (UniProt Q61026); experiment: co-IP; data not shown
[3] = molecular target: coiled-coil coactivator (CoCoA), wild type (UniProt Q8CGU1); experiment: co-IP; data not shown
[4] = molecular target: protein inhibitor of activated STAT 1 (PIAS1) (UniProt O75925); experiment: co-IP; in vivo; data not shown
[5] = molecular target: glucocorticoid receptor interacting protein 1 (GRIP1) (UniProt Q61026); experiment: two-hybrid; mammalian two-hybrid; data not shown
[6] = molecular target: coiled-coil coactivator (CoCoA), wild type (UniProt Q8CGU1); experiment: two-hybrid; mammalian two-hybrid; data not shown
K29R mutant of CoCoA [7] = molecular target: K29R mutant of CoCoA (UniProt Q8CGU1); experiment: co-IP; data not shown
K29R mutant of CoCoA [8] = molecular target: K29R mutant of CoCoA (UniProt Q8CGU1); experiment: two-hybrid; mammalian two-hybrid; data not shown

Measured: binding

B1: HA-tagged CoCoA(1–190) wild type (domain or fragment, UniProt Q8CGU1 1-190)
chain: MEESSLSRAPSRGGVNFLNVARTYIPNTKVECHYTLPPGTMPSASDWIGIFKVEAACVRDYHTFVWSSVPESTTDGSPTHASVQFQASYLPKPGAQLYQFRYVNRQGRVCGQSPPFQFREPRPMDELVTLEEADGGSDILLVVPKATVLQNQLDESQQERNDLMQLKLQLEDQVTELRSRVQELEAALAT
binds: [1] | GST-p300 KIX fragment | GST-β-catenin

B2: coiled-coil coactivator (CoCoA), wild type (protein, UniProt Q8CGU1 1-691)
chain: MEESSLSRAPSRGGVNFLNVARTYIPNTKVECHYTLPPGTMPSASDWIGIFKVEAACVRDYHTFVWSSVPESTTDGSPTHASVQFQASYLPKPGAQLYQFRYVNRQGRVCGQSPPFQFREPRPMDELVTLEEADGGSDILLVVPKATVLQNQLDESQQERNDLMQLKLQLEDQVTELRSRVQELEAALATARQEHSELTEQYKGLSRSHGELSEERDILSQQQGDHVARILELEDDIQTMSDKVLMKEVELDRVRDTVKALTREQEKLLRQLKEFQADKEQSEAELQTVREENCCLNTELEEAKSRQEEQGAQVQRLKDKLAHMKDTLGQAQQKVAELEPLKEQLRGVQELAASSQQKAALLGEELASAAGARDRTIAELHRSRLEVAEVNGRLAELSLHMKEEKCQWSKERTGLLQSMEAEKDKILKLSAEILRLEKTVQEERTQSHVFKTELAREKDSSLVQLSESKRELTELRSALRVLQKEKEQLQTEKQELLEYMRKLEARLEKVADEKWTEDAATEDEEATAGLSCPASLTDSEDESPEDMRLPSYGLCESGNTSSSPPGPREPSSLVVINQPAPIAPQFSGPGEASSSDSEAEDEKSVLMAAVQSGGEEASLLLPELGSAFYDVASAFTVSSLSEASPGVPANPPWKECPICKERFPAESDKDALEGHMDGHFFFSTQDPFTFE
binds: [2] | [3] | [4] | [5] | [6]

B3: K29R mutant of CoCoA (protein, UniProt Q8CGU1 1-691)
chain: B2 chain with K29R
binds: [2] | K29R mutant of CoCoA [7] | [5] | K29R mutant of CoCoA [8]

B4: HA-tagged CoCoA(1–190, K29R) (domain or fragment, UniProt Q8CGU1 1-190)
chain: B1 chain with K29R
binds: [1] | GST-p300 KIX fragment | GST-β-catenin
